Reference: patent US20220242958A1, “BISPECIFIC NANOBODIES” (Ablynx N.V., priority 2013, published 2022)
No constants are given. Whether binding was seen depends on the method and setting. Some results given as binding are weak or reduced against the parent protein; the word gives no strength. For part of these data: Where a sequence is shown, tags or fusion partners need not be part of it. Blank lines part the entries; values can stand above or below the binder they belong to.

Sequences of proteins named here, by UniProt entry; tags and fusion partners are left off. A change or cut given only in a name is not applied to a line headed by its entry.
UniProt P61073: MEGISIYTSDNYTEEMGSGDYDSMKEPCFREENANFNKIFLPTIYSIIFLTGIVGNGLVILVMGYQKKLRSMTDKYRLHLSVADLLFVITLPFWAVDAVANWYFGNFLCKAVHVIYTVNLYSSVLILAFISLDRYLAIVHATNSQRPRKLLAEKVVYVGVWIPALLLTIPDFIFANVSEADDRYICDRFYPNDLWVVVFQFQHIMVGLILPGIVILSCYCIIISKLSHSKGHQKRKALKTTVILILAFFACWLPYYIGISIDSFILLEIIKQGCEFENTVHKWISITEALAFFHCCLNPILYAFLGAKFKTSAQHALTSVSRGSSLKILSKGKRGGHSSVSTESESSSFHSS
UniProt P26951: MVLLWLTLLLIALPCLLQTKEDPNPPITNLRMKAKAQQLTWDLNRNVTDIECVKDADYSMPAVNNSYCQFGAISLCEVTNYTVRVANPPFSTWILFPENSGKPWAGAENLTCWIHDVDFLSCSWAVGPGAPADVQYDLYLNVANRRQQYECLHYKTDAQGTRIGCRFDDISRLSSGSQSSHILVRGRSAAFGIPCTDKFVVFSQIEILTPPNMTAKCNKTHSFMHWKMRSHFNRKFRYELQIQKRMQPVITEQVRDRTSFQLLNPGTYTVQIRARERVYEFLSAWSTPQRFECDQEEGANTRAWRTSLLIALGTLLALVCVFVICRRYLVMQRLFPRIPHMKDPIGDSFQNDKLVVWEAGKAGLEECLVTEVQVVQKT

Experiments:
[1] = target: human CD4, cell-expressed (human) (UniProt P01730); test: multi-colour FACS, TH1 activated T cells
[2] = target: human CD4, cell-expressed (human) (UniProt P01730); test: FACS, MOLM-13 cells
[3] = target: human CD4, cell-expressed (human) (UniProt P01730); test: FACS, activated human T cells (CD4 very high, IL12R moderate)
[4] = target: T1, CXCR4 and IL-3Rα (CD123) co-expressed on MOLM-13 cells (human) (UniProt P61073+P26951); test: FACS, MOLM-13 cells
[5] = target: T1, CXCR4 and IL-3Rα (CD123) co-expressed on MOLM-13 cells (human); test: FACS at 4.6 nM, mixed MOLM-13 and Jurkat E6-1 cells
[6] = target: T1, CXCR4 and IL-3Rα (CD123) co-expressed on MOLM-13 cells (human); test: FACS at 4.6 nM, MOLM-13 (CXCR4+/CD123+)
[7] = target: human CXCR4 (on cells, membrane extracts or viral lipoparticles) (human) (UniProt P61073); test: cell binding and CXCR4-VLP ELISA
[8] = target: CXCR4 and CD4 co-expressed on cells (human) (UniProt P61073+P01730); test: FACS, Jurkat cells

binding [1]: binds | binding [2]: binds | binding [3]: binds
B1: IL12Rb2#1-CD4#8 (bispecific antibody)
chain: EVQLVESGGRLVQAGDSLRLSCAASGRTFISYRMGWFRQAPGKEREFVAALRWSSSNIDYTYYADSVKGRFSISGDYAKNTVYLQMNSLKAEDTAVYYCAASTRWGVMESDTEYTSWGQGTLVTVSSGGGGSGGGGSGGGGSGGGGSGGGGSGGGGSGGGGSEVQLVESGGGSVQPGGSLTLSCGTSGRTFNVMGWFRQAPGKEREFVAAVRWSSTGIYYTQYADSVKSRFTISRDNAKNTVYLEMNSLKPEDTAVYYCAADTYNSNPARWDGYDFRGQGTLVTVSS

binding [2]: binds | binding [3]: binds
B2: IL12Rb2#2-CD4#8 (bispecific antibody)
chain: EVQLVESGGRLVQAGDSLRLSCAASGRTFTSYRMGWFRQAPGKEREFVSALRWSSGNIDYTYYADSVKGRFSISGDYAKNTVYLQMNSLKAEDTAVYYCAASTRWGVMESDTEYTSWGQGTLVTVSSGGGGSGGGGSGGGGSGGGGSGGGGSGGGGSGGGGSEVQLVESGGGSVQPGGSLTLSCGTSGRTFNVMGWFRQAPGKEREFVAAVRWSSTGIYYTQYADSVKSRFTISRDNAKNTVYLEMNSLKPEDTAVYYCAADTYNSNPARWDGYDFRGQGTLVTVSS

binding [2]: binds | binding [3]: binds
B6: CD4#8-IL12Rb2#1 (bispecific antibody)
chain: EVQLVESGGGSVQPGGSLTLSCGTSGRTFNVMGWFRQAPGKEREFVAAVRWSSTGIYYTQYADSVKSRFTISRDNAKNTVYLEMNSLKPEDTAVYYCAADTYNSNPARWDGYDFRGQGTLVTVSSGGGGSGGGGSGGGGSGGGGSGGGGSGGGGSGGGGSEVQLVESGGRLVQAGDSLRLSCAASGRTFISYRMGWFRQAPGKEREFVAALRWSSSNIDYTYYADSVKGRFSISGDYAKNTVYLQMNSLKAEDTAVYYCAASTRWGVMESDTEYTSWGQGTLVTVSS

binding [2]: binds | binding [3]: binds
B7: CD4#8-IL12Rb2#2 (bispecific antibody)
chain: EVQLVESGGGSVQPGGSLTLSCGTSGRTFNVMGWFRQAPGKEREFVAAVRWSSTGIYYTQYADSVKSRFTISRDNAKNTVYLEMNSLKPEDTAVYYCAADTYNSNPARWDGYDFRGQGTLVTVSSGGGGSGGGGSGGGGSGGGGSGGGGSGGGGSGGGGSEVQLVESGGRLVQAGDSLRLSCAASGRTFTSYRMGWFRQAPGKEREFVSALRWSSGNIDYTYYADSVKGRFSISGDYAKNTVYLQMNSLKAEDTAVYYCAASTRWGVMESDTEYTSWGQGTLVTVSS

Second part, the binder before the results:

B3: 57A07-14D09 (A0110057A07-35GS-4CXCR014D09(Q108L)) (bispecific antibody)
chain: EVQLVESGGGLVQAGGSLRLSCAASGSIFSGNVMGWYRRQAPGKEREWVAAIASGGSIYYRDSVKGRFTISRDNAKNTVYLQMNSLKPEDTAVYYCNSHPPTLPYWGQGTLVTVSSGGGGSGGGGSGGGGSGGGGSGGGGSGGGGSGGGGSEVQLVESGGGLVQAGGSLRLSCVASGISSSKRNMGWYRQAPGKQRESVATISSGGNKDYTDAVKDRFTISRDTTKNTVYLQMNSLKPEDTAVYYCKIEAGTGWATRRGYTYWGQGTLVTVSSAAAEQKLISEEDLNGAAHHHHHH
binding [4]: binds | binding [5]: binds

B4: 57A07-281F12 (A0110057A07-35GS-4CXCR281F12(Q108L)) (bispecific antibody)
chain: EVQLVESGGGLVQAGGSLRLSCAASGSIFSGNVMGWYRRQAPGKEREWVAAIASGGSIYYRDSVKGRFTISRDNAKNTVYLQMNSLKPEDTAVYYCNSHPPTLPYWGQGTLVTVSSGGGGSGGGGSGGGGSGGGGSGGGGSGGGGSGGGGSEVQLVESGGGLVQAGDSLRLSCAASGRAFSRYAMGWFRQAPGKEREFVAAIGWGPSKTNYADSVKGRFTISRDNAKNTVYLQMNTLKPEDTAVYSCAAKFVNTDSTWSRSEMYTYWGQGTLVTVSSAAAEQKLISEEDLNGAAHHHHHH
binding [4]: binds | binding [5]: binds

B5: 14D09-57A07 (4CXCR014D09(Q108L)-35GS-A0110057A07) (bispecific antibody)
chain: EVQLVESGGGLVQAGGSLRLSCVASGISSSKRNMGWYRQAPGKQRESVATISSGGNKDYTDAVKDRFTISRDTTKNTVYLQMNSLKPEDTAVYYCKIEAGTGWATRRGYTYWGQGTLVTVSSGGGGSGGGGSGGGGSGGGGSGGGGSGGGGSGGGGSEVQLVESGGGLVQAGGSLRLSCAASGSIFSGNVMGWYRRQAPGKEREWVAAIASGGSIYYRDSVKGRFTISRDNAKNTVYLQMNSLKPEDTAVYYCNSHPPTLPYWGQGTLVTVSSAAAEQKLISEEDLNGAAHHHHHH
binding [6]: binds | binding [4]: binds

B8: 281F12-55A01 (4CXCR281F12(Q108L)-35GS-A0110055A01) (bispecific antibody)
chain: EVQLVESGGGLVQAGDSLRLSCAASGRAFSRYAMGWFRQAPGKEREFVAAIGWGPSKTNYADSVKGRFTISRDNAKNTVYLQMNTLKPEDTAVYSCAAKFVNTDSTWSRSEMYTYWGQGTLVTVSSGGGGSGGGGSGGGGSGGGGSGGGGSGGGGSGGGGSEVQLVESGGGSVQAGGSLRLSCTTSGRALNMYVMGWFRQAPGNEREFVAATSSSGGSTSYPDSVKGRFTISRDNAKNTVYLQMNSLKPEDTAAYRCAASPYVSTPTMNILEEYRYWGQGTLVTVSSAAAEQKLISEEDLNGAAHHHHHH
binding [6]: binds | binding [4]: binds

B9: 55A01-14D09 (A0110055A01-35GS-4CXCR014D09(Q108L)) (bispecific antibody)
chain: EVQLVESGGGSVQAGGSLRLSCTTSGRALNMYVMGWFRQAPGNEREFVAATSSSGGSTSYPDSVKGRFTISRDNAKNTVYLQMNSLKPEDTAAYRCAASPYVSTPTMNILEEYRYWGQGTLVTVSSGGGGSGGGGSGGGGSGGGGSGGGGSGGGGSGGGGSEVQLVESGGGLVQAGGSLRLSCVASGISSSKRNMGWYRQAPGKQRESVATISSGGNKDYTDAVKDRFTISRDTTKNTVYLQMNSLKPEDTAVYYCKIEAGTGWATRRGYTYWGQGTLVTVSSAAAEQKLISEEDLNGAAHHHHHH
binding [4]: binds | binding [5]: binds

B10: 14D09 (TAG), 4CXCR014D09-FLAG3-HIS6 (VHH)
VHH: EVQLVESGGGLVQAGGSLRLSCVASGISSSKRNMGWYRQAPGKQRESVATISSGGNKDYTDAVKDRFTISRDTTKNTVYLQMNSLKPEDTAVYYCKIEAGTGWATRRGYTYWGQGTLVTVSS
binding [7]: binds

B11: 55A01-281F12 (A0110055A01-35GS-4CXCR281F12(Q108L)) (bispecific antibody)
chain: EVQLVESGGGSVQAGGSLRLSCTTSGRALNMYVMGWFRQAPGNEREFVAATSSSGGSTSYPDSVKGRFTISRDNAKNTVYLQMNSLKPEDTAAYRCAASPYVSTPTMNILEEYRYWGQGTLVTVSSGGGGSGGGGSGGGGSGGGGSGGGGSGGGGSGGGGSEVQLVESGGGLVQAGDSLRLSCAASGRAFSRYAMGWFRQAPGKEREFVAAIGWGPSKTNYADSVKGRFTISRDNAKNTVYLQMNTLKPEDTAVYSCAAKFVNTDSTWSRSEMYTYWGQGTLVTVSSAAAEQKLISEEDLNGAAHHHHHH
binding [4]: binds | binding [5]: binds

B12: 14D09-55A01 (4CXCR014D09(Q108L)-35GS-A0110055A01) (bispecific antibody)
chain: EVQLVESGGGLVQAGGSLRLSCVASGISSSKRNMGWYRQAPGKQRESVATISSGGNKDYTDAVKDRFTISRDTTKNTVYLQMNSLKPEDTAVYYCKIEAGTGWATRRGYTYWGQGTLVTVSSGGGGSGGGGSGGGGSGGGGSGGGGSGGGGSGGGGSEVQLVESGGGSVQAGGSLRLSCTTSGRALNMYVMGWFRQAPGNEREFVAATSSSGGSTSYPDSVKGRFTISRDNAKNTVYLQMNSLKPEDTAAYRCAASPYVSTPTMNILEEYRYWGQGTLVTVSSAAAEQKLISEEDLNGAAHHHHHH
binding [6]: binds | binding [4]: binds

B13: 281F12-57A07 (4CXCR281F12(Q108L)-35GS-A0110057A07) (bispecific antibody)
chain: EVQLVESGGGLVQAGDSLRLSCAASGRAFSRYAMGWFRQAPGKEREFVAAIGWGPSKTNYADSVKGRFTISRDNAKNTVYLQMNTLKPEDTAVYSCAAKFVNTDSTWSRSEMYTYWGQGTLVTVSSGGGGSGGGGSGGGGSGGGGSGGGGSGGGGSGGGGSEVQLVESGGGLVQAGGSLRLSCAASGSIFSGNVMGWYRRQAPGKEREWVAAIASGGSIYYRDSVKGRFTISRDNAKNTVYLQMNSLKPEDTAVYYCNSHPPTLPYWGQGTLVTVSSAAAEQKLISEEDLNGAAHHHHHH
binding [6]: binds | binding [4]: binds

B14: 281F12-35GS-03F11 (bispecific antibody)
chain: EVQLVESGGGLVQAGDSLRLSCAASGRAFSRYAMGWFRQAPGKEREFVAAIGWGPSKTNYADSVKGRFTISRDNAKNTVYLQMNTLKPEDTAVYSCAAKFVNTDSTWSRSEMYTYWGQGTQVTVSSGGGGSGGGGSGGGGSGGGGSGGGGSGGGGSGGGGSEVQLVESGGGSVQPGGSLTLSCGTSGRTFNVMGWFRQAPGKEREFVAAVRWSSTGIYYTQYADSVKSRFTISRDNAKNTVYLEMNSLKPEDTAVYYCAADTYNSNPARWDGYDFRGQGTQVTVSS
binding [8]: binds
